Experimental data published in the supplement of paper PMC6411743.
± gives the standard deviation of the averaged measurements. The list shows a part of the results, in another mix than the full data. Most entries show no effect beyond the scatter of the controls.

The chains behind the UniProt entries cited, without tags or fusion partners. Where a name states a change or a piece, a line headed by the entry shows the natural chain unless it says otherwise.
UniProt Q9BSQ5: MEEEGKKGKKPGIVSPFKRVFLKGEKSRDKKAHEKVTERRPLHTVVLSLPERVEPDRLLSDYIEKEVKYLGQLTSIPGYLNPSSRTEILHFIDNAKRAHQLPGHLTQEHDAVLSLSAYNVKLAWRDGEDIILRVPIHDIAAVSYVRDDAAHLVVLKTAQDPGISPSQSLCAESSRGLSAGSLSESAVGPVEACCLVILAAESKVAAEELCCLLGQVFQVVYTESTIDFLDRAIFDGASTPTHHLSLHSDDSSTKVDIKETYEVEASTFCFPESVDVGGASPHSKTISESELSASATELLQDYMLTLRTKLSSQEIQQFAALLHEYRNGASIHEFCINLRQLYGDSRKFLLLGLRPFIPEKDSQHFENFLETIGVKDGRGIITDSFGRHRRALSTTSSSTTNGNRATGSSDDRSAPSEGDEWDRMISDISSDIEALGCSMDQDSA
UniProt Q9NVV0: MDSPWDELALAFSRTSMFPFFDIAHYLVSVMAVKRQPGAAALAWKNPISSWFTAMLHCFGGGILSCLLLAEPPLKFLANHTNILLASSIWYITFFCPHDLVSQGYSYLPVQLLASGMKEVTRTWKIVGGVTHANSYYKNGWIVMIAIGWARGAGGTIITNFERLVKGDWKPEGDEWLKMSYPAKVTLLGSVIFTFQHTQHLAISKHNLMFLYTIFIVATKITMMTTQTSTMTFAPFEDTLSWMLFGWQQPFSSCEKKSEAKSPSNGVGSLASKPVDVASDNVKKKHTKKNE
UniProt Q8IYU8: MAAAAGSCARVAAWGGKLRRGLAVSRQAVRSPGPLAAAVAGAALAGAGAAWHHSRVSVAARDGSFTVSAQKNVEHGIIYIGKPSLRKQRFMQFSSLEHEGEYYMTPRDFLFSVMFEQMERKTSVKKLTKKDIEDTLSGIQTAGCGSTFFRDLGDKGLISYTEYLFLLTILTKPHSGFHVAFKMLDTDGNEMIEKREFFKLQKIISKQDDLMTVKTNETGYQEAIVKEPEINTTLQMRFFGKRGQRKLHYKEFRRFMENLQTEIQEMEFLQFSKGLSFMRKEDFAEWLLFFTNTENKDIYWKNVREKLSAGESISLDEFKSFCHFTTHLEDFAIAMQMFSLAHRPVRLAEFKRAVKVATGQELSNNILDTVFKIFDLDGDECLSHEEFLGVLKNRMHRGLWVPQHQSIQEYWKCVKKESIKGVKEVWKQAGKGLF
UniProt Q6UXD5: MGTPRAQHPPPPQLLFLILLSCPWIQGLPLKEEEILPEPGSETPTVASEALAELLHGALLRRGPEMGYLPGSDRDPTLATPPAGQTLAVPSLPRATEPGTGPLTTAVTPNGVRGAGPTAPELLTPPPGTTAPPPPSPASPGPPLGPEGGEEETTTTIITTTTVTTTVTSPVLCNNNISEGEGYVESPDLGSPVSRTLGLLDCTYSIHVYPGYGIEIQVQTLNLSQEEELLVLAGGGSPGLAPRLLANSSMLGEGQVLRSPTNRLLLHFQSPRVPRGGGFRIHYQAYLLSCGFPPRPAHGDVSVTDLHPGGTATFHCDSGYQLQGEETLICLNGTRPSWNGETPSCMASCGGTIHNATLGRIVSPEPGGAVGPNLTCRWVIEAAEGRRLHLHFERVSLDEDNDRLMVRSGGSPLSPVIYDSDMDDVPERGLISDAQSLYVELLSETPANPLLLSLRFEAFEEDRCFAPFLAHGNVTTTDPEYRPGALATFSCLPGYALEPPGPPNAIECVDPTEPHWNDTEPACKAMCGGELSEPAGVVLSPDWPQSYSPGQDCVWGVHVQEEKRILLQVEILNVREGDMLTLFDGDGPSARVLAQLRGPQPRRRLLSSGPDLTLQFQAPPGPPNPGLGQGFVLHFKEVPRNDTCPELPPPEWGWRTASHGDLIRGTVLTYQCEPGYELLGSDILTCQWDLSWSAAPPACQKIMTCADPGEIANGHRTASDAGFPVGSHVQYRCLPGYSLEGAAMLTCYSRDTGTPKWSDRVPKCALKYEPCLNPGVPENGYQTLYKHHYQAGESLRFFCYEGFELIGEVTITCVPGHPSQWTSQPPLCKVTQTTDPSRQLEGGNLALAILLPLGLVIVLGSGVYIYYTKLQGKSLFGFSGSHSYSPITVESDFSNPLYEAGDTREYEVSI
UniProt Q9BV38: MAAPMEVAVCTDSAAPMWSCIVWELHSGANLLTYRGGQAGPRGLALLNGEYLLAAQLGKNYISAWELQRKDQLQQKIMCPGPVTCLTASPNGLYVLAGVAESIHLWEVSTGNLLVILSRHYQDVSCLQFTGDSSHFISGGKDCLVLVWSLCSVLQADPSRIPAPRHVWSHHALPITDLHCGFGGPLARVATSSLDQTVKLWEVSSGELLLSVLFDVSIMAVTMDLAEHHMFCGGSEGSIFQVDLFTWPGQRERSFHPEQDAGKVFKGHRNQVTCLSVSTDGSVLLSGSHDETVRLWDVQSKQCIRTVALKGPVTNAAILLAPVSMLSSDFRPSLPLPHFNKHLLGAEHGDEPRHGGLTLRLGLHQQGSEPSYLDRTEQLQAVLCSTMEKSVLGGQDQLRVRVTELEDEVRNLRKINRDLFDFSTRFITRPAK
UniProt Q8IW50: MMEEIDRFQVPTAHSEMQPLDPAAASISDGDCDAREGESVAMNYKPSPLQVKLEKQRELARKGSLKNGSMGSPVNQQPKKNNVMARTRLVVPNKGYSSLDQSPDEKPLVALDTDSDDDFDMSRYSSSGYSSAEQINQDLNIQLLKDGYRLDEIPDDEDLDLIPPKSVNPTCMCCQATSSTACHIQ
UniProt Q9Y5U8: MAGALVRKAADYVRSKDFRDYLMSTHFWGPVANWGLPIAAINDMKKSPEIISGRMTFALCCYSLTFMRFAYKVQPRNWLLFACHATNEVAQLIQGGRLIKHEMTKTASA
UniProt P04179: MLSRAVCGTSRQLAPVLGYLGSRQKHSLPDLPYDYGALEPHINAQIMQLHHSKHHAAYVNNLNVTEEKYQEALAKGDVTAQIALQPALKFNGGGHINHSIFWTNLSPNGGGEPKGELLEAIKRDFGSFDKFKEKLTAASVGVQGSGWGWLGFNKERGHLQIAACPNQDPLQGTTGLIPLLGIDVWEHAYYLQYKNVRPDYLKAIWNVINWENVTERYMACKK
UniProt Q5T8I9: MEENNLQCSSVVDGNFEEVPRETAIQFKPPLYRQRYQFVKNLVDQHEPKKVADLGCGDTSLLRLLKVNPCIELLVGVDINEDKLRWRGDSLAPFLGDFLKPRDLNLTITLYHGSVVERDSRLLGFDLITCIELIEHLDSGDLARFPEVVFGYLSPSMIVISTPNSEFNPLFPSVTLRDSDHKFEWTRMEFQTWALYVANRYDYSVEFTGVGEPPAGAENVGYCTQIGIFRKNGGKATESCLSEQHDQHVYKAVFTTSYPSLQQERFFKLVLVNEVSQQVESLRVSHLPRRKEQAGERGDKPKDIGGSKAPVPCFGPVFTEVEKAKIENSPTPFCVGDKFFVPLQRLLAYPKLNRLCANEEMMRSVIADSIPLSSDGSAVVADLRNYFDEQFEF
UniProt P15289: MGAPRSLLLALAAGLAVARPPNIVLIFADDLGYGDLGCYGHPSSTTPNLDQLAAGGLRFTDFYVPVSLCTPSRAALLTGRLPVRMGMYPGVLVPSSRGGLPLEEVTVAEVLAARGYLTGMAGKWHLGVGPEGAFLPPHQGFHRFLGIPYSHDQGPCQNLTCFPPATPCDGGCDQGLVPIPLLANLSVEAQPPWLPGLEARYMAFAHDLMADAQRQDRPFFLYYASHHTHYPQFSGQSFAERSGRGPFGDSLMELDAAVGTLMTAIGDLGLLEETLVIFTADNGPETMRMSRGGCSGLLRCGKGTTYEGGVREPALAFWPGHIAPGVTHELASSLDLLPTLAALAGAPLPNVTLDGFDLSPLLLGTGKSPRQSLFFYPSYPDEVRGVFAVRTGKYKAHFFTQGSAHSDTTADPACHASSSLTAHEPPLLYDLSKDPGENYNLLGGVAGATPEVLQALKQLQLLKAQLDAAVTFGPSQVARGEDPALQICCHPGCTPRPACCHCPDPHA
UniProt Q5RL73: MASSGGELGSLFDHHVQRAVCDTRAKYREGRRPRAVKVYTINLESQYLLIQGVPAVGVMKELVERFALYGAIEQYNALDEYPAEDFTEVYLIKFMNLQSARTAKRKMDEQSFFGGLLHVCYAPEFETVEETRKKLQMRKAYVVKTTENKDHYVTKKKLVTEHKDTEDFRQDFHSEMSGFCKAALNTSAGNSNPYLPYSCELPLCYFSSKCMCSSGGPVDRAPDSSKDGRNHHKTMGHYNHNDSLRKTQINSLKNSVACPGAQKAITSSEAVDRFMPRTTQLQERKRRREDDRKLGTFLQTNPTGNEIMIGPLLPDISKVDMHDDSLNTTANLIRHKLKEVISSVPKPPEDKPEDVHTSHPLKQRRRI
UniProt Q5T8P6: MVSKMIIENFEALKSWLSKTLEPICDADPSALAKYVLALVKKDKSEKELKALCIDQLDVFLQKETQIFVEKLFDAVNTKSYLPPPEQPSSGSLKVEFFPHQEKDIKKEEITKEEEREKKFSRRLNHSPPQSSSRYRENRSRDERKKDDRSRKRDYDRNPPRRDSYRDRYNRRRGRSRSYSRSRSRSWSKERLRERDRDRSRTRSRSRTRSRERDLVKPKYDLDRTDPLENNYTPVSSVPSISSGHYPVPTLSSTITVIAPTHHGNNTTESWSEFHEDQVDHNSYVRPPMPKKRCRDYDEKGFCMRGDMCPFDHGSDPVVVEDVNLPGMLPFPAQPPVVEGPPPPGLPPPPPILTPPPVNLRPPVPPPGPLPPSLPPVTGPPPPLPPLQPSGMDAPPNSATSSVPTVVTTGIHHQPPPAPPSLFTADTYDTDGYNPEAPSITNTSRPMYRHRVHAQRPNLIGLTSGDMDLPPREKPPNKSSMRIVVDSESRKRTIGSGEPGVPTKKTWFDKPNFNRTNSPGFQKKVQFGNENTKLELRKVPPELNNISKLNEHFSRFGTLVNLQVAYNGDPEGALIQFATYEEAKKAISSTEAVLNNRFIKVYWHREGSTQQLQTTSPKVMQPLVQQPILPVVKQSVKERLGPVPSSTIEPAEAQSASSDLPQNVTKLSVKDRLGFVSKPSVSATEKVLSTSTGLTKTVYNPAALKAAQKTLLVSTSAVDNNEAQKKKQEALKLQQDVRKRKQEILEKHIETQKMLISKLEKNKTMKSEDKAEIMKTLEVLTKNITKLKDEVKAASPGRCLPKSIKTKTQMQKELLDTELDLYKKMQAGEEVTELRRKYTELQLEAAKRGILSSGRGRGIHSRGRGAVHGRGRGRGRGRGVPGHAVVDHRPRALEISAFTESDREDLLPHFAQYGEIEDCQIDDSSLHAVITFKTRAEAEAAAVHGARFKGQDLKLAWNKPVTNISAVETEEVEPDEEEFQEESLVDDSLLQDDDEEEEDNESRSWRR
UniProt P0DMN0: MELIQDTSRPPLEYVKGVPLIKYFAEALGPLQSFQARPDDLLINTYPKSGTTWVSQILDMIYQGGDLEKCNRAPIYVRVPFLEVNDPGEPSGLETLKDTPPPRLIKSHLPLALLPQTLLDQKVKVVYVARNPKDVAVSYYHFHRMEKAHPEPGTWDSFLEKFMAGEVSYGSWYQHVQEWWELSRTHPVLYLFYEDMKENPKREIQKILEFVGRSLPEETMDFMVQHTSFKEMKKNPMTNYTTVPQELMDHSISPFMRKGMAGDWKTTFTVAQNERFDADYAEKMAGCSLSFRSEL
UniProt Q14114: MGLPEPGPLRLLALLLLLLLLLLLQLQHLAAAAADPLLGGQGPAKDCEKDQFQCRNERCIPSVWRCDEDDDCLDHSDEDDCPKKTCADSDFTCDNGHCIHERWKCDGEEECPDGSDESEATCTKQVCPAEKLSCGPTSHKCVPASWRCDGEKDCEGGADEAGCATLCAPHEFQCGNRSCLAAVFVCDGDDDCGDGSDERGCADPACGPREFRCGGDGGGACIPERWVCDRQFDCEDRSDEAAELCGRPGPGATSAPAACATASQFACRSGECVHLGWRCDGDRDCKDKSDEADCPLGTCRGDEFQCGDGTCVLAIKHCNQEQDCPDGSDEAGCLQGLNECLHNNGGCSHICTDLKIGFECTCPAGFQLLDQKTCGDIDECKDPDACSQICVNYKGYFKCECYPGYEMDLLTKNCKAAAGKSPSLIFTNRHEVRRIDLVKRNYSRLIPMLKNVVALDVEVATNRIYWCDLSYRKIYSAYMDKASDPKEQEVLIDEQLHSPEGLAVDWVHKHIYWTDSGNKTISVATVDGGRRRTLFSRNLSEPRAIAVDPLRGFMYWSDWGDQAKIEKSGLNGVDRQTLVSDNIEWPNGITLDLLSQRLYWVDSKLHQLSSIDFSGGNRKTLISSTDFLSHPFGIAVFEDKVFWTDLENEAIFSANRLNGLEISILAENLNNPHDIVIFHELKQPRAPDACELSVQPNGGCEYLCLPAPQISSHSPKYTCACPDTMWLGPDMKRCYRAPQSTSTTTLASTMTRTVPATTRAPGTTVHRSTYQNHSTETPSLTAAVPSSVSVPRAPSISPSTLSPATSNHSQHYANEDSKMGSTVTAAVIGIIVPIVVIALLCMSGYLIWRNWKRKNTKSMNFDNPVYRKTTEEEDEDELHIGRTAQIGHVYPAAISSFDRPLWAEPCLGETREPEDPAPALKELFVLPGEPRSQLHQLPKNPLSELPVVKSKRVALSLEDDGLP

Compound: Nc1ncnc2c1ncn2[C@@H]1O[C@H](COP(=O)(O)OP(=O)(O)OP(=O)(O)O)[C@@H](O)[C@H]1O [adenosine triphosphate]
Assay: NP40-soluble protein abundance relative to vehicle (solubility fold change) (ratio); higher = more soluble protein in presence of ATP
Outline: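 Jurkat crude lysate (Dounce-homogenised) was treated with eight concentrations from 0.1 to 10 mM for 10 min at room temperature, then 3 min at 37 °C. It was solubilised with 0.8% NP40 and benzonase (60 min, 4 °C) and ultracentrifuged, and the supernatant was TMT-labelled for LC-MS/MS. Intensities were vsn-normalised, and the value is the fold change against the NP40-processed vehicle per replicate, from three independent experiments.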

A0A0A0MT72|Q9BSQ5 and related entries (UniProt Q9BSQ5)
NP40-soluble protein abundance (concentration: 0.1mM): 1.01 ± 0.028
NP40-soluble protein abundance (concentration: 0.5mM): 1.04 ± 0.052

A0A0A0MRS4|Q9NVV0 (UniProt Q9NVV0)
NP40-soluble protein abundance (concentration: 0.1mM): 1 ± 0.055
NP40-soluble protein abundance (concentration: 0.5mM): 1.0425 ± 0.00069

A0A0C4DFL8|F5GX28 and related entries (UniProt O94953)
NP40-soluble protein abundance (concentration: 0.1mM): 0.979 ± 0.076
NP40-soluble protein abundance (concentration: 0.5mM): 1.03 ± 0.094

A0A0A0MTD5|Q8IYU8 (UniProt Q8IYU8)
NP40-soluble protein abundance (concentration: 0.1mM): 0.964 ± 0.29
NP40-soluble protein abundance (concentration: 0.5mM): 0.928 ± 0.14

A0A087WYL5|Q6UXD5-3|Q6UXD5-5|Q6UXD5-6 (UniProt Q6UXD5)
NP40-soluble protein abundance (concentration: 0.1mM): 0.953 ± 0.13
NP40-soluble protein abundance (concentration: 0.5mM): 0.915 ± 0.064

A0A075B738|P16284 (UniProt P16284)
NP40-soluble protein abundance (concentration: 0.1mM): 0.949 ± 0.021
NP40-soluble protein abundance (concentration: 0.5mM): 0.926 ± 0.034

A0A0A0MQU0|Q9BV38 and related entries (UniProt Q9BV38)
NP40-soluble protein abundance (concentration: 0.1mM): 1.04 ± 0.14
NP40-soluble protein abundance (concentration: 0.5mM): 0.974 ± 0.024

A0A0A0MRW1|Q5T593 and related entries (UniProt Q8IW50)
NP40-soluble protein abundance (concentration: 0.1mM): 0.803 ± 0.16
NP40-soluble protein abundance (concentration: 0.5mM): 0.878 ± 0.044

A0A087WVZ0|Q9Y5U8 (UniProt Q9Y5U8)
NP40-soluble protein abundance (concentration: 0.1mM): 0.972 ± 0.058
NP40-soluble protein abundance (concentration: 0.5mM): 0.968 ± 0.033

A0A0D9SEZ9|O00303 (UniProt O00303)
NP40-soluble protein abundance (concentration: 0.1mM): 0.953 ± 0.037
NP40-soluble protein abundance (concentration: 0.5mM): 0.949 ± 0.063

A0A087WUL7|Q96F24 (UniProt Q96F24)
NP40-soluble protein abundance (concentration: 0.1mM): 0.988 ± 0.031
NP40-soluble protein abundance (concentration: 0.5mM): 1.02 ± 0.04

A0A087WVP1|Q14517 (UniProt Q14517)
NP40-soluble protein abundance (concentration: 0.1mM): 1.01 ± 0.037
NP40-soluble protein abundance (concentration: 0.5mM): 1.02 ± 0.048

A0A0C4DFU2|P04179 (UniProt P04179)
NP40-soluble protein abundance (concentration: 0.1mM): 0.932 ± 0.058
NP40-soluble protein abundance (concentration: 0.5mM): 0.944 ± 0.026

A0A075B746|P82921 (UniProt P82921)
NP40-soluble protein abundance (concentration: 0.1mM): 0.978 ± 0.16
NP40-soluble protein abundance (concentration: 0.5mM): 0.97 ± 0.091

A0A0A0MRN1|Q5T8I9 (UniProt Q5T8I9)
NP40-soluble protein abundance (concentration: 0.1mM): 1.1 ± 0.029
NP40-soluble protein abundance (concentration: 0.5mM): 0.956 ± 0.059

A0A0C4DFZ2|P15289 (UniProt P15289)
NP40-soluble protein abundance (concentration: 0.1mM): 0.9591 ± 0.0093
NP40-soluble protein abundance (concentration: 0.5mM): 0.963 ± 0.0096

A0A0C4DGT5|Q5RL73 and related entries (UniProt Q5RL73)
NP40-soluble protein abundance (concentration: 0.1mM): 0.942 ± 0.13
NP40-soluble protein abundance (concentration: 0.5mM): 0.944 ± 0.059

A0A087X0H9|Q5T8P6 and related entries (UniProt Q5T8P6)
NP40-soluble protein abundance (concentration: 0.1mM): 1.03 ± 0.016
NP40-soluble protein abundance (concentration: 0.5mM): 1.23 ± 0.046

A0A0A6YYL2|P0DMM9 and related entries (UniProt P0DMN0+P0DMM9)
NP40-soluble protein abundance (concentration: 0.1mM): 1.06 ± 0.075
NP40-soluble protein abundance (concentration: 0.5mM): 0.998 ± 0.038

A0A087WVQ6|Q00610 and related entries (UniProt Q00610)
NP40-soluble protein abundance (concentration: 0.1mM): 1.08 ± 0.071
NP40-soluble protein abundance (concentration: 0.5mM): 1.13 ± 0.053

A0A087WW84|Q14114-2|Q14114 and related entries (UniProt Q14114)
NP40-soluble protein abundance (concentration: 0.1mM): 1.03 ± 0.035
NP40-soluble protein abundance (concentration: 0.5mM): 0.995 ± 0.045
